Results on two substances are retold here after patent US10100082B2 (Council of Scientific and Industrial Research, priority 2016, dated 2018).

Data set [1] is described as follows: general procedure: peptide synthesis; Rink Amide AM resin. Conditions: whole synthesis.
A further data set can be described thus: peptide synthesis. The following applies: whole synthesis.

For some assays here: Strings that start with PEPTIDE1 are HELM notation: dots part the residues, brackets hold end groups and non-standard residues. A value given as a limit tells only on which side of the number the result lay.

Turning to Biotin-NAPVSIPQ-NH2, the “final HPLC purity” value in data set [1] was greater than 97%.
As to PEPTIDE1{N.A.V.S.I.Q.[am]}$$$$V2.0, in the data set “peptide synthesis”, the “final HPLC purity” value is given as greater than 98%.
